# The full ranking holds about 33,000 sequences; the median of “E-score (-0.5 to 0.5)” is about -0.0034, and the highest 2% start at about 0.25. The list shows a part of the results.
# Target: T1, Yap3 (UniProt P38749)
# T1 sequence: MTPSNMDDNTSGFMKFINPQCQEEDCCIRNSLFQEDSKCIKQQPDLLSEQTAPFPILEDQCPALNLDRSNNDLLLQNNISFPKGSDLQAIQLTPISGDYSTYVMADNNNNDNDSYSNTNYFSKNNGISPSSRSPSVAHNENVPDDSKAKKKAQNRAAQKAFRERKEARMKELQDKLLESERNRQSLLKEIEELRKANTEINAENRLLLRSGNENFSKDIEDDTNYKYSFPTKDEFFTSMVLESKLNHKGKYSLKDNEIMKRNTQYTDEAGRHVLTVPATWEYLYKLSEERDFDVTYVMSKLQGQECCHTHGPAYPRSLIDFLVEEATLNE
# Assay: PBM E-score (8-mer binding enrichment) (E-score (-0.5 to 0.5)); higher = stronger / more preferred TF binding
# Settings: protein concentration: 100 nM; construct: GST-full length
# Summary of the method: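 For each ungapped eight-base word taken together with its reverse complement, the Universal PBM Analysis Suite assigned an E-score. Binding data came from GST-tagged yeast transcription factors, applied at about 100-200 nM, on universal all-10-mer Agilent arrays made double-stranded by primer extension. Fluorescent anti-GST marked bound protein, and scans were normalised with masliner.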
row,Sequence,PBM E-score
1,CCACAACA,-0.0955
2,ACACCGGT,-0.0348
3,ACATGGAA,0.11
4,GAGTCACA,0.0758
5,GCACATCC,-0.0425
6,CGTTCCGA,0.00542
7,ACCGGGAT,-0.183
8,ACCCTACG,-0.115
9,AGTCATAC,0.00383
10,AGGCTGTA,0.0824
11,ACAAAGAT,0.0828
12,CGTACCCC,0.0512
13,GTCGCAAA,0.0874
14,GGGAGGCA,-0.251
15,ATCCTCTC,-0.0398
16,CACCGGGG,-0.342
17,GATACTGC,0.19
18,CCCTGTAG,-0.136
19,AGACGTCC,0.0554
20,ATCTGAAA,-0.0353
21,ATAGGCCA,-0.109
22,AAAACTCT,-0.168
23,CACTCGCA,0.0389
24,CGGTGGGA,-0.107
25,CCCACAAC,-0.132

row,Sequence,PBM E-score
1,CTAATGGC,0.0233
2,ATTCACTG,0.0615
3,AGCGTGCA,-0.012
4,ACATAGTG,0.0432
5,GACTAACC,-0.0654
6,GCTGCTTA,-0.14
7,CCAATTGG,0.245
8,CCGTTTTA,0.0816
9,AAACCACA,0.129
10,AGAGCTTC,-0.124
11,AGGTCCTG,-0.174
12,CGCTCGAA,-0.122
13,GACAAGTA,-0.00588
14,ACAAACCG,-0.0143
15,GGTGGATA,-0.054
16,CACTCAAC,0.188
17,TAGATAAA,0.157
18,ACGAAACG,0.0929
19,GTATCGTA,0.185
20,TCGACCGA,0.0102
21,ACCACGCC,-0.241
22,GCCTACGA,0.136
23,CGGCCCGA,-0.0391
24,CAACCCCC,-0.372
25,AACGCAAG,-0.04

row,Sequence,PBM E-score
1,CAACACGA,0.0874
2,CGAATAAG,-0.00825
3,CAAGTCCA,-0.03
4,AGTACTGA,-0.0205
5,ATGCTAGC,0.0109
6,ATGGTTTC,0.167
7,CAATTGGA,0.00694
8,ACCGGGCG,-0.278
9,CACATTCA,0.0306
10,AGATCTCG,0.00088
11,CCAAAAAC,0.139
12,AATCAGTC,0.0871
13,ACTATCAG,0.0145
14,CAGACCGC,0.0188
15,ACCATTGA,0.0679
16,AAGCAAGA,0.118
17,TAAGTCAA,0.0697
18,GACAATCC,0.174
19,CTTATAGA,-0.0523
20,CAAACTGG,0.0416
21,GAGGTCCA,-0.245
22,TTGGAAAA,0.0714
23,AGGCAATA,0.0359
24,CTTGGGTC,-0.0649
25,ACGGGGAT,-0.205

# Rewritten with bars between the fields: part of the list above.
row | Sequence | PBM E-score
15 | ACCATTGA | 0.0679
16 | AAGCAAGA | 0.118
17 | TAAGTCAA | 0.0697
18 | GACAATCC | 0.174

# Continuation.

row,Sequence,PBM E-score
1,AACGAATA,0.11
2,CACCCTCG,-0.104
3,GCAGTAGC,-0.246
4,ATGAGAAG,0.0776
5,AGGCGCCT,-0.112
6,TCGAGTAA,0.176
7,AGCTGTTG,0.113
8,ACGCGAGC,0.0664
9,CTTGTCAA,-0.0181
10,AATAATAT,0.337
11,AGCCATTC,-0.00907
12,AGGAGAAG,-0.0878
13,AGTACGAC,-0.0619
14,GACATCTA,0.00074
15,CCACATGG,-0.228
16,CACGTGTA,-0.0491
17,CGAGGCCG,-0.226
18,AAGTCTGA,-0.216
19,CAGCCATA,-0.0168
20,GTGTCTCA,-0.0322
21,CACAGAAC,-0.136
22,CTAGGGAC,-0.0709
23,CGTCCTAG,-0.14
24,AAAGACTA,-0.056
25,TATTGTGA,0.106

row,Sequence,PBM E-score
1,AGCTTCGC,-0.223
2,ACTAGACA,0.0606
3,CGTAGATC,0.0115
4,ATCTAATA,0.191
5,CCCCATCA,-0.111
6,CAGCTATC,-0.126
7,CCGTACGC,0.0362
8,ATGTATGC,0.109
9,ATCCCCAT,-0.0121
10,AAGCCGGT,-0.0593
11,GCGGGAGC,-0.229
12,CAAGGGAG,-0.229
13,CAAAGGTG,-0.0389
14,GGCCAGCA,-0.166
15,GGCAGGCC,-0.291
16,CCCCCCGC,-0.361
17,GCTGTGCA,-0.205
18,CTTTCCTC,-0.0643
19,GCGACCCA,-0.283
20,AATCCTAT,0.228
21,CCAGGTTC,-0.317
22,CCATCAGC,-0.00182
23,CCCAATCC,-0.14
24,GGAGACAA,0.127
25,AGTGGTAC,0.0484

# Copied from the list.
# PBM E-score with CACCGGGG is entered as -0.342
# PBM E-score with AGGTCCTG is entered as -0.174
# PBM E-score with ATCTAATA is entered as 0.191

# Later entries.

row,Sequence,PBM E-score
1,ATGATCCG,-0.0916
2,GTTCCGGA,-0.156
3,CCTGCCAG,-0.25
4,ACGTTCCG,-0.1
5,AGAGGATA,0.0206
6,AGAATAGG,0.172
7,ATGCAGCG,-0.175
8,AAAACGAC,-0.00219
9,AAGTCGGA,0.0731
10,AATCAGAT,0.0727
11,GAAGGAAC,-0.158
12,TGCCGCCA,0.0161
13,GAATTTCC,0.277
14,ATCAGGCC,-0.144
15,GTCATATA,0.163
16,GAGCGCAC,-0.12
17,AGCTCGAG,-0.0903
18,CGTATACG,-0.0611
19,AACTAGAC,0.0874
20,ACAAACTC,-0.00445
21,AAAAATAC,0.14
22,ACCTACGG,-0.301
23,CGGAAGAG,-0.0921
24,GGATATGA,0.0846
25,GTGAACTA,0.123

# Some of the entries so far, bar-delimited:
row | Sequence | PBM E-score
20 | ACAAACTC | -0.00445
21 | AAAAATAC | 0.14
22 | ACCTACGG | -0.301

# Later entries:

row,Sequence,PBM E-score
1,CTCTCGAA,0.0266
2,CTCTACCA,-0.0394
3,AGTAGTGA,0.0679
4,AGAGGGAT,-0.218
5,GGCTATCA,-0.0472
6,AGGGAGGG,-0.234
7,CACTCGAA,-0.0436
8,AAGAGTTG,0.0294
9,AGTATGCA,-0.0365
10,GCGGACAA,0.196
11,CAGTCTTC,-0.0179
12,AAGTGAAT,0.245
13,TAGTTACA,-0.0858
14,CAGAGGCG,-0.136
15,ACCAATCG,0.223
16,GTTCCAAC,-0.00516
17,ACTCGCTG,-0.114
18,ACCTCAGG,-0.227
19,AGAATGAC,0.0866
20,CTCGCCAG,-0.151
21,CACCCGGC,-0.411
22,GTCCGGAC,0.0517

# Reference: the supplement of paper PMC3334620
